From patent US6380198B1 (Laboratoire Medidom S.A., priority 1997, dated 2002) come the findings set out here.

By UniProt entry, the sequences of proteins in these tests, tags left out. Residues count along the entry.
UniProt G1SD54, 1-223: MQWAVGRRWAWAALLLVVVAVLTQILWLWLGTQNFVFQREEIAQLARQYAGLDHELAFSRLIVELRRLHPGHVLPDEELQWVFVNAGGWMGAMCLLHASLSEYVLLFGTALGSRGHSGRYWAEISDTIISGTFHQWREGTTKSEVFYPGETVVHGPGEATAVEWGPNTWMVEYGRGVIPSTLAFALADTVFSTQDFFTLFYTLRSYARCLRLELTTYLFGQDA

The assay has as its target T1, σ-1 receptors (Oryctolagus cuniculus, UniProt G1SD54).
T1 construct: cell membranes obtained from the irido-ciliary body complex; from tissue; host or cells: rabbit irido-ciliary body, P2 membrane fraction
Briefly: Inhibition of 3H(+)-N-allyl-nor-methazocine binding to irido-ciliary body membranes. Also noted: species or system rabbit (New Zealand albino). The settings on record: rabbit irido-ciliary body P2 membranes, 300 μg protein, 37° C., 150 minutes, duplicate. The procedure:
The receptor binding technique was carried out on cell membranes obtained from the irido-ciliary body complex explanted, after sacrifice, from male albino rabbits of the New Zealand strain (Charles River Italiana, of Calco (CO)). The tissue was homogenised in buffer and the P2, fraction, rich in cell membrane proteins, was isolated. […] The La total protein concentration was determined with the Lowry method.
The non specific binding was evaluated in presence of haloperidol.
All tests were carried out in duplicate. The reaction was maintained at 37° C. for 150 minutes, followed by filtration on WhatmannGF/B filters. The radioactivity left on the filters was measured by liquid scintillation spectrometry.

The term IC50 denotes the concentration that gives 50% inhibition. `Fc1ccc(C(c2ccc(F)cc2)N2CCN(C/C=C/c3ccccc3)CC2)cc1` [flunarizine] yielded an IC50 of 23.9 nM.
